Data from publication PMC7380579.

Target: T1, PerR (PerR:Zn,Mn) (UniProt A0ABN4B511)
T1 sequence (looked up): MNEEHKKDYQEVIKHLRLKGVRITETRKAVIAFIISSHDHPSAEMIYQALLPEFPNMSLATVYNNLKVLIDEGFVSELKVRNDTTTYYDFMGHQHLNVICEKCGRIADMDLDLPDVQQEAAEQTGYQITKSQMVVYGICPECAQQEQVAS
Test: EMSA
Conditions: 10 mM Tris-HCl pH 8.0, 50 mM NaCl, 5% glycerol, 10 ug/ml BSA, 2 ng/ul poly(dI-dC), 0.5 mM DTT, Chelex-treated, 0.2 nM probe, 30 C, 6% PAGE on ice, recombinant protein, label: 5'-biotin (forward primer), probe letters rebuilt from the primers and the genome

AATGACCAAGCCTAGAAATGAGGCTAAAATCGTTCCGACCAGAAAAAAGTATAGATGTATCATACTTATTTATTCGTGATTTTGAGCAGAAAAATTTTGAAATTTTACAACTTTTCTAATAAAGTAAAATTTTTAGTTTTAATACTTGACTTTCTTAATTAGAAGCATTATAATTAAAACATAATCAATAAAGATTAGAATGATTACAAATAAAAAGAGAGGTATCATT (double strand) [dpr promoter]
binding result (PerR:Zn,Mn (50 nM) pretreated with 50 uM H2O2, 30 min, 1 mM …, residues 1-150, protein details: GST tag (pGEX4T-1) removed with thrombin): binds more weakly
binding signal (% of untreated complex) (PerR:Zn,Mn (50 nM) pretreated with 200 uM H2O2, 5 min (text: ~59% inactivated), 1 mM MnCl2, 30 min, residues 1-150, protein details: GST tag (pGEX4T-1) removed with thrombin): 41

ATAGCTTCTGAAAGAGGGGACTGCCAAATAGAAAGGCCTCCTCAAAAAGACTCTGGCGGGTTGATTCATACGGTAATGACACCATTTCTGCTAGAAAAACTGTATCGAGAGTAGCTTGAGACCAGCCGAGCGCTTGTAATTCTGTATAGCATTGCTCTATTTCTACTTTCATCACCATCCACATCCATCATATAAAATTTCTTCAGTACCGTTCGAGGCTTCGCTAGCAGGCTCATGCAGCCTTCGATACCTCTCCTATTTACCTCTAAATATGCCAAAATTTCAGCTAAAAGTCAATGTACAAAGGAACATCCAAGCTCAAATTGTATTCTTTCGGCATTTTTTGCTATACTAGTCTTAGGAAAACAACGAGGACTGAAAATGACGCCAAATAAAG (double strand) [mntR promoter]
binding result (1 mM Mn2+, PerR 0-200 nM, 1 mM MnCl2, 30 min, residues 1-150, protein details: GST tag (pGEX4T-1) removed with thrombin): no binding

Negatives hold for the conditions tested. Where a protein sequence is shown, tags need not be part of it. For at least one entry, the source does not settle the construct or the ends of the probe. Weaker means in comparison with the reference protein, sequence or condition of that experiment. The direction of at least one scale is not stated here.
